Measured values from the supplement of paper PMC10849652.
The other results are listed elsewhere or left out.

By UniProt entry, the sequences of proteins in these tests, tags left out. Where a name states a change or a piece, a line headed by the entry shows the natural chain unless it says otherwise.
UniProt Q32P44: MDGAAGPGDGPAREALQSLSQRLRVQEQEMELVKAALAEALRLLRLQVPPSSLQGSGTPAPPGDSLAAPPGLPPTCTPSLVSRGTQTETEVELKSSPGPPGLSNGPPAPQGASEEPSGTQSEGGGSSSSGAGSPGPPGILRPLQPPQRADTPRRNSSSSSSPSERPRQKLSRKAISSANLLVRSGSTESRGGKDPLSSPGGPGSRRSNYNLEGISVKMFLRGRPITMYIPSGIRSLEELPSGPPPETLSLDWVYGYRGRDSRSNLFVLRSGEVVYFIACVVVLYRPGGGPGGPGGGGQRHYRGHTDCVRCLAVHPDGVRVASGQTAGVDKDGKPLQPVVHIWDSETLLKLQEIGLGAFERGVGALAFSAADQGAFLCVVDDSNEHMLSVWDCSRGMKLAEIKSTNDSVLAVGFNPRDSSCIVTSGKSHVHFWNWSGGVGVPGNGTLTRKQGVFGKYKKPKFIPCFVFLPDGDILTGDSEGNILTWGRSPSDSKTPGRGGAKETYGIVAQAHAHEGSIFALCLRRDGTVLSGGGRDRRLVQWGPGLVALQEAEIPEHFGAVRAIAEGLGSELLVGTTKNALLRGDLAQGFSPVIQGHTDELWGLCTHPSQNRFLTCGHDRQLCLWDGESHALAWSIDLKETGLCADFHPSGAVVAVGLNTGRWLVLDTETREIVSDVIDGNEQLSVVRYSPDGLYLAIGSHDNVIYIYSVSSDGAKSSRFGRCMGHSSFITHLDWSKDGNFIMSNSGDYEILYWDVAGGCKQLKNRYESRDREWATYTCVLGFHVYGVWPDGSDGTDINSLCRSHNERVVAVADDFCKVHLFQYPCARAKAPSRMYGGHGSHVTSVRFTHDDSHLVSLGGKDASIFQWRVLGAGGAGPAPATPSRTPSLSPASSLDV
UniProt P78344: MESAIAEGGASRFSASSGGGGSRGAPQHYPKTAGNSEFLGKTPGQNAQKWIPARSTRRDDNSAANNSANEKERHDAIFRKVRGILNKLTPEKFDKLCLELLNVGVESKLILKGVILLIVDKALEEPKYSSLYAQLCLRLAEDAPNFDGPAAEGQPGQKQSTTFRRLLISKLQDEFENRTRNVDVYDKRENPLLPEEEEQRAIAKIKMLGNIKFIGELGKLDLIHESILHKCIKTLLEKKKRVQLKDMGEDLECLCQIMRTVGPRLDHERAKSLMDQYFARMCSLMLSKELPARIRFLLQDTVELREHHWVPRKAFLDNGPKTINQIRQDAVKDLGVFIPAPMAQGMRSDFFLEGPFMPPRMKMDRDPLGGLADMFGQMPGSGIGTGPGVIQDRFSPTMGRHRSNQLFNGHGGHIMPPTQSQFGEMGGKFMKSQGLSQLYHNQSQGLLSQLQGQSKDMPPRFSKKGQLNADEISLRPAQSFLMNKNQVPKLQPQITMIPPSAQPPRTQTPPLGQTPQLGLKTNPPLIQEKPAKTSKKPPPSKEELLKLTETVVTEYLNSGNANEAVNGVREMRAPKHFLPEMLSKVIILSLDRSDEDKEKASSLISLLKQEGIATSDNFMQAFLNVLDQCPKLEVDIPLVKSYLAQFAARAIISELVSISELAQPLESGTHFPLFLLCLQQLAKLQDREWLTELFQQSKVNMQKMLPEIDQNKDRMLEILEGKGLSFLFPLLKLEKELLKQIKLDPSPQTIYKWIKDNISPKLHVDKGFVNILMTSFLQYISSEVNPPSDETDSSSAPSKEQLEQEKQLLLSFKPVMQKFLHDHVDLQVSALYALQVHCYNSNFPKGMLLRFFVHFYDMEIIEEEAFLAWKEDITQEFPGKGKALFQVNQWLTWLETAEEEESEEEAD
UniProt Q13216, whole entry, looked up: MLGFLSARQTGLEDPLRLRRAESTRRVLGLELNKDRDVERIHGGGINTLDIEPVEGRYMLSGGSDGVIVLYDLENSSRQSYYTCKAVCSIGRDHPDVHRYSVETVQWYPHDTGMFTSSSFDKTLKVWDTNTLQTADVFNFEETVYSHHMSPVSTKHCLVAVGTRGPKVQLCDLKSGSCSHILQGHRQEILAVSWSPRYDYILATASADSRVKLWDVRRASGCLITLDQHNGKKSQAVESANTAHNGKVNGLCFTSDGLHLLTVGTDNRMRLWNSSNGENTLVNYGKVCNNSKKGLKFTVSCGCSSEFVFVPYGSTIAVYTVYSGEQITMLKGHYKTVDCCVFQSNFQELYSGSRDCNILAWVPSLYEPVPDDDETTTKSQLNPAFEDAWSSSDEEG
UniProt O75354: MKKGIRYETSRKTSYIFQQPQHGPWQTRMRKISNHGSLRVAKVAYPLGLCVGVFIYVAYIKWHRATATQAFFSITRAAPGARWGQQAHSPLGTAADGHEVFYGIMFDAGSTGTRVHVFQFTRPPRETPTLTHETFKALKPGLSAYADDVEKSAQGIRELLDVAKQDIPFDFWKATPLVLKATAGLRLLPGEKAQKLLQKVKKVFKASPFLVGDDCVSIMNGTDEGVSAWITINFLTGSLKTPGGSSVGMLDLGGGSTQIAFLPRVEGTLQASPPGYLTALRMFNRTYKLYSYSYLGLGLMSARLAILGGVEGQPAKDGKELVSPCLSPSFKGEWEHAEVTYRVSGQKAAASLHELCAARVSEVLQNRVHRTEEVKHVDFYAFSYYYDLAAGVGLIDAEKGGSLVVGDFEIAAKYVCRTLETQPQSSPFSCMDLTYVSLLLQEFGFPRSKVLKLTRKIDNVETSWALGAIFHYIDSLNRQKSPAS
UniProt Q8TE68: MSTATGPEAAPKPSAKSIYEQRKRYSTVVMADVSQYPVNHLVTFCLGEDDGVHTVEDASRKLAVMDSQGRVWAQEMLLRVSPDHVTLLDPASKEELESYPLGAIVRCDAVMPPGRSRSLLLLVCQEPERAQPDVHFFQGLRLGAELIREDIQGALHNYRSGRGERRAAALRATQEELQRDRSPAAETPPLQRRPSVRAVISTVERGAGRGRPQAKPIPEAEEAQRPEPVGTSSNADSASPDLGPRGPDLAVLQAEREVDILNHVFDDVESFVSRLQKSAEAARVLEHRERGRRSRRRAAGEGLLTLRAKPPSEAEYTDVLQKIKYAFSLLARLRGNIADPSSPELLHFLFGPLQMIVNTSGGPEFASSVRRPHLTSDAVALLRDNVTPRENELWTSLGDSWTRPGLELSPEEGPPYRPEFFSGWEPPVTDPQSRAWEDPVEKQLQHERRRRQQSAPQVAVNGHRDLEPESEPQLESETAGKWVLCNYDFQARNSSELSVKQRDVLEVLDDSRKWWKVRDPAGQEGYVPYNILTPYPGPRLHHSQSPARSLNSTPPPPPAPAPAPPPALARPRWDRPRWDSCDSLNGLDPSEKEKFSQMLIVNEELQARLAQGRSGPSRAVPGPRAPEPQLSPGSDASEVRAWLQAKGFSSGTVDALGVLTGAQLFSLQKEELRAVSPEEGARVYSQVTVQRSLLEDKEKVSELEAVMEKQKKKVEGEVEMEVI
UniProt O75822, whole entry, looked up: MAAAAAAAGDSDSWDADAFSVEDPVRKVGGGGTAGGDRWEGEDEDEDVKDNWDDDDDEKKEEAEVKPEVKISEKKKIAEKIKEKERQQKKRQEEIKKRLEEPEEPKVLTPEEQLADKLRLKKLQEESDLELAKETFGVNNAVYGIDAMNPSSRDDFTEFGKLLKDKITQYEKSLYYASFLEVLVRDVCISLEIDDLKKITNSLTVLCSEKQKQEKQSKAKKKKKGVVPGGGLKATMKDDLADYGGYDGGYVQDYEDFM
UniProt O43491, whole entry, looked up: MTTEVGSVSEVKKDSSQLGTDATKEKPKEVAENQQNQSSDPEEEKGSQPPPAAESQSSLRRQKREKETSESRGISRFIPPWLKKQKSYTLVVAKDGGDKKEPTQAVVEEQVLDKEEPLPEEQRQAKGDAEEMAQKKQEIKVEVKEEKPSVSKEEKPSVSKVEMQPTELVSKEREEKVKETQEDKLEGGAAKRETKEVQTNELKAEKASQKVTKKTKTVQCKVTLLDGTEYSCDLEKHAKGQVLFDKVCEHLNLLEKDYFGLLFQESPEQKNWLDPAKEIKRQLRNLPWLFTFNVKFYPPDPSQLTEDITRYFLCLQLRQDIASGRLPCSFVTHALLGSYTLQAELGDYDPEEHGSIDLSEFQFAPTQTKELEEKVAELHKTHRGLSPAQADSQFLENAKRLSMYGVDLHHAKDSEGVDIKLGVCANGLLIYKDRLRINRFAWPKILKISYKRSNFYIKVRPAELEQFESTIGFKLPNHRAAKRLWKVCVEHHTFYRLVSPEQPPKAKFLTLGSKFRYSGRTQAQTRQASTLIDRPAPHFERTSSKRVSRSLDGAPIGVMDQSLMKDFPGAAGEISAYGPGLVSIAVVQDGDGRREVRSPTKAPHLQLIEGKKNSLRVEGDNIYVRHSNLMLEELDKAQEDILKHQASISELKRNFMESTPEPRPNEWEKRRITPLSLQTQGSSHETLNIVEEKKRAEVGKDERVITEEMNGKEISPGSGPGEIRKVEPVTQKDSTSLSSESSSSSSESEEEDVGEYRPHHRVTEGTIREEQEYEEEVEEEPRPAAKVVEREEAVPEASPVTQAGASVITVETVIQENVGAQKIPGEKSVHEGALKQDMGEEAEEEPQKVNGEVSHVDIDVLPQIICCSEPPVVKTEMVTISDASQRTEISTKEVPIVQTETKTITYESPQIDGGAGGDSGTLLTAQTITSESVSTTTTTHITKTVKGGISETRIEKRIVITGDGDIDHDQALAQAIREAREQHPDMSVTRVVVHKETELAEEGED
UniProt Q8N5X7: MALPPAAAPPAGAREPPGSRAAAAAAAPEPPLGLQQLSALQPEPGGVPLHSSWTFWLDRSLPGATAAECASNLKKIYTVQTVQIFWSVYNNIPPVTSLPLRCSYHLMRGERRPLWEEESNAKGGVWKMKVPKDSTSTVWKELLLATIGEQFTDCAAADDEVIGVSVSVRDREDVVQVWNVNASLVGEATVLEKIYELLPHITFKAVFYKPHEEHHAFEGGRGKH
UniProt O15197: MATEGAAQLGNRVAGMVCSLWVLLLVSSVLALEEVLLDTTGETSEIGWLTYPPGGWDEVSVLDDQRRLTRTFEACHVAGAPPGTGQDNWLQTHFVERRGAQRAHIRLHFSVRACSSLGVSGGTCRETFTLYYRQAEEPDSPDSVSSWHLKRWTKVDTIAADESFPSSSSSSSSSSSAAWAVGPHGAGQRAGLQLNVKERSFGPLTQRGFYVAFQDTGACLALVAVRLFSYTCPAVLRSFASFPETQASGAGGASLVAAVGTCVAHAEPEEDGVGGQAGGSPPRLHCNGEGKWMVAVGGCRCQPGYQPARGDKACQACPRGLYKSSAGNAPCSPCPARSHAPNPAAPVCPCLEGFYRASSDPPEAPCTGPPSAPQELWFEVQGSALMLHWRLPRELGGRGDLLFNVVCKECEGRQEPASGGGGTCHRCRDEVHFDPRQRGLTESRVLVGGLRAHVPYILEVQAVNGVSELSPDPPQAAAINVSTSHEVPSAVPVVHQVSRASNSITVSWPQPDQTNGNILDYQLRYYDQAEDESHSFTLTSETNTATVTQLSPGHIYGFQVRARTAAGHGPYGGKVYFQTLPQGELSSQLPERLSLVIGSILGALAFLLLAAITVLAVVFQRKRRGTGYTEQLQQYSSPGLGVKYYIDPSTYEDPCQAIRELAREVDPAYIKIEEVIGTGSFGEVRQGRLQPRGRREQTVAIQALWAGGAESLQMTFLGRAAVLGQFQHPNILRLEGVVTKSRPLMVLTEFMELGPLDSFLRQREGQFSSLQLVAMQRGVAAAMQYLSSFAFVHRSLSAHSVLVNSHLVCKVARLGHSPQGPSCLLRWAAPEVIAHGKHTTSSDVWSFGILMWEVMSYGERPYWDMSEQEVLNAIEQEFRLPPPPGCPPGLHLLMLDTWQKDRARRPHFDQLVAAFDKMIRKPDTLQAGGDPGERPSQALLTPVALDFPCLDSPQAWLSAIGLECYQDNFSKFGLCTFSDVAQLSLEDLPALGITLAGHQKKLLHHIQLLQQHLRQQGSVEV
UniProt Q9NQZ7: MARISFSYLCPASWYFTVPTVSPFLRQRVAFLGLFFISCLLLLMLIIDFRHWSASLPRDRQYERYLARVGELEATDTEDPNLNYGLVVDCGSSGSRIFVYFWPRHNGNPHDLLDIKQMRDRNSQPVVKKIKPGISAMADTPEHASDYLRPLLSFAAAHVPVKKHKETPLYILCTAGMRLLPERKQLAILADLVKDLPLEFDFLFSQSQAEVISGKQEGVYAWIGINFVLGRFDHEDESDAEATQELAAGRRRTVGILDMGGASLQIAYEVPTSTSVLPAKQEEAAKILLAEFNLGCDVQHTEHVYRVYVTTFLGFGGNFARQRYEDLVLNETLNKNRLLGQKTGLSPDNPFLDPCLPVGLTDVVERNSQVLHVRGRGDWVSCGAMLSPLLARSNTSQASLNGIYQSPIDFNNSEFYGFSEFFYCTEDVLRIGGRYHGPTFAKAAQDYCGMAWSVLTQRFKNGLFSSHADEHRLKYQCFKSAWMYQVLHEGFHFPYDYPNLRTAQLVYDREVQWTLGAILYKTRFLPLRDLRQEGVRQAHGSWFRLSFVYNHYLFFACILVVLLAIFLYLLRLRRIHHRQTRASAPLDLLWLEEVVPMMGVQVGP

Columns and labels:
Experiment in all cases: log2 fold change, soluble protein after heating vs DMSO (PISA); higher = thermal stabilisation; K562 lysate, 10 uM; active = over 0.2 and 3.5 SD of the protein, either way, in both replicates (recomputed)
nilotinib = compound: Cc1cn(-c2cc(NC(=O)c3ccc(C)c(Nc4nccc(-c5cccnc5)n4)c3)cc(C(F)(F)F)c2)cn1 [nilotinib]
Outline: (§1)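 K562 pellets were dounce-homogenised in PBS pH 7.4 containing 1 mM MgCl2, and the crude extract, at 1 mg/mL protein, was exposed to 10 μM compound for 30 min. Aliquots were heated for 3 min across 48°C-58°C, pooled, brought to 0.5% NP-40 at 4°C and spun at 21,000xg for 90 min, with the supernatant taken as soluble protein. TMTpro 16plex LC-MS/MS with equalised channel sums quantified that protein. Values are log-two fold changes in thermal stability relative to solvent controls, taken from duplicates.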

[1] = compound: Cc1nc(Nc2n[nH]c3c2CN(C(=O)N[C@H](CN(C)C)c2ccccc2)C3(C)C)c2sccc2n1
Outline: as §1

dasatinib = compound: Cc1nc(Nc2ncc(C(=O)Nc3c(C)cccc3Cl)s2)cc(N2CCN(CCO)CC2)n1 [dasatinib]
Outline: as §1

[2] = compound: Cc1ncc(-c2ccnc(Nc3ccc(S(C)(=O)=O)cc3)n2)n1C(C)C
Outline: as §1

[3] = compound: Cn1cc(-c2ccc3c(c2)CCN3C(=O)Cc2cccc(C(F)(F)F)c2)c2c(N)ncnc21
Outline: as §1

quisinostat = compound: Cn1cc(CNCC2CCN(c3ncc(C(=O)NO)cn3)CC2)c2ccccc21 [quisinostat]
Outline: as §1

tipifarnib = compound: Cn1cncc1[C@@](N)(c1ccc(Cl)cc1)c1ccc2c(c1)c(-c1cccc(Cl)c1)cc(=O)n2C [tipifarnib]
Outline: as §1

[4] = compound: NC(=O)Nc1cc(-c2cccc(F)c2)sc1C(=O)N[C@H]1CCCNC1
Outline: as §1

[5] = compound: NC(=O)c1cnc(N[C@@H]2CCCC[C@@H]2N)nc1Nc1cccc(-n2nccn2)c1
Outline: as §1

[6] = compound: NC1(c2ccc(-c3nc4ccn5c(=O)[nH]nc5c4cc3-c3ccccc3)cc2)CCC1
Outline: as §1

[7] = compound: NCC(=O)Nc1ccc(-n2nc(C(F)(F)F)cc2-c2ccc3c(ccc4ccccc43)c2)cc1
Outline: as §1

vorinostat = compound: O=C(CCCCCCC(=O)Nc1ccccc1)NO [vorinostat]
Outline: as §1

silmitasertib = compound: O=C(O)c1ccc2c(c1)nc(Nc1cccc(Cl)c1)c1ccncc12 [silmitasertib]
Outline: as §1

[8] = compound: O=C1NC(=O)C(c2cnc3ccccn23)=C1c1cn2c3c(cc(F)cc13)CN(C(=O)N1CCCCC1)CC2
Outline: as §1

entospletinib = compound: c1cn2cc(-c3ccc4cn[nH]c4c3)nc(Nc3ccc(N4CCOCC4)cc3)c2n1 [entospletinib]
Outline: as §1

Measured: log2 fold change

EIF4A3 (UniProt P38919)
inactive: nilotinib -0.015 | [1] -0.031 | dasatinib -0.048 | [2] 0.001 | [3] -0.017 | quisinostat -0.021 | tipifarnib 0.015 | [4] 0.021 | [5] 0.02 | [6] -0.009 | [7] 0.005 | vorinostat 0.011 | silmitasertib 0.038 | [8] -0.004 | entospletinib 0.032

EML3 (UniProt Q32P44)
inactive: nilotinib -0.008 | [1] 0.021 | dasatinib 0.005 | [2] -0.041 | [3] -0.013 | quisinostat -0.012 | tipifarnib -0.007 | [4] 0.005 | [5] 0.006 | [6] 0.013 | [7] 0.032 | vorinostat -0.014 | silmitasertib 0.004 | [8] -0.027 | entospletinib 0.017

EIF4G2 (UniProt P78344)
inactive: nilotinib 0.021 | [1] 0 | dasatinib -0.095 | [2] 0 | [3] 0.051 | quisinostat -0.02 | tipifarnib -0.006 | [4] 0.001 | [5] 0.001 | [6] 0.029 | [7] 0.008 | vorinostat -0.184 | silmitasertib 0.019 | [8] -0.085 | entospletinib -0.03

ERF (UniProt P50548)
inactive: nilotinib 0.038 | [1] 0.001 | dasatinib 0.042 | [2] -0.096 | [3] 0.089 | quisinostat -0.056 | tipifarnib -0.094 | [4] 0.027 | [6] -0.127 | [7] 0.144 | vorinostat 0.036 | silmitasertib -0.204 | [8] -0.015

EIF4ENIF1 isoform 3 (UniProt Q9NRA8)
inactive: nilotinib 0.023 | [1] 0.021 | dasatinib -0.048 | [2] -0.031 | [3] 0.046 | quisinostat -0.056 | tipifarnib -0.003 | [4] 0.056 | [5] 0.014 | [6] 0.07 | [7] 0.032 | vorinostat -0.037 | silmitasertib -0.036 | [8] 0.011 | entospletinib -0.024

EML4 (UniProt Q9HC35)
inactive: nilotinib -0.001 | [1] -0.001 | dasatinib -0.017 | [2] 0.016 | [3] -0.01 | quisinostat -0.055 | tipifarnib -0.005 | [4] 0.011 | [5] 0.002 | [6] 0.001 | [7] -0.008 | vorinostat -0.086 | silmitasertib 0.021 | [8] -0.006 | entospletinib 0.003

EIF3B (UniProt C9JQN7)
inactive: nilotinib 0.006 | [1] -0.059 | [2] 0.086 | quisinostat -0.098 | tipifarnib 0.015 | [4] -0.053 | [5] -0.021 | [6] 0 | vorinostat 0.103 | silmitasertib -0.04 | [8] 0.065

EIF3G (UniProt K7ENA8)
inactive: dasatinib 0.017 | [3] -0.042 | [5] -0.34

ERCC8 (UniProt Q13216)
inactive: nilotinib 0.047 | [1] -0.002 | [2] -0.151 | quisinostat -0.05 | tipifarnib 0.046 | [4] -0.007 | [5] 0.084 | [8] -0.039

ENO3 (UniProt K7EKN2)
inactive: [5] 0.151

ENTPD6 (UniProt O75354)
inactive: dasatinib -0.033 | [3] 0.103 | quisinostat 0.044 | [4] 0.017 | [5] -0.032 | [6] 0.023 | vorinostat 0.066 | silmitasertib -0.042 | [8] -0.142

EIF4B (UniProt F8VP89)
inactive: dasatinib -0.125 | [3] -0.017 | quisinostat -0.352 | [4] 0.037 | [5] -0.01 | [8] 0.274

EIF4G1 isoform 5 (UniProt Q04637)
inactive: nilotinib -0.108 | [1] -0.005 | [2] 0.121 | tipifarnib 0.05 | [5] 0.125

ELAC1 (UniProt Q9H777)
inactive: [5] -0.012 | [7] 0.052 | entospletinib 0

EPC2 (UniProt Q52LR7)
inactive: dasatinib -0.039 | [3] 0.031 | quisinostat 0.093 | [4] 0.011 | [5] -0.186 | [7] 0.24 | [8] -0.004 | entospletinib -0.033

EPC1 (UniProt Q9H2F5)
inactive: quisinostat -0.332 | [4] 0.172 | [8] 0.171

EPS8L1 (UniProt Q8TE68)
inactive: dasatinib 0.038 | [3] -0.058 | quisinostat -0.065 | [4] 0.046 | [7] 0.037 | [8] 0.243 | entospletinib -0.035

EPN2 (UniProt I3L356)
inactive: nilotinib -0.248 | [1] 0.062 | [2] -0.291 | tipifarnib 0.238 | [5] 0.021

EMC1 isoform 3 (UniProt Q8N766)
inactive: quisinostat -0.052 | [4] 0.008 | [5] -0.007 | [8] 0.111

ELOVL1 (UniProt Q9BW60)
inactive: dasatinib -0.012 | [3] -0.05 | quisinostat -0.038 | [4] 0.091 | [5] 0.065 | [6] -0.053 | [7] -0.016 | vorinostat 0.202 | silmitasertib 0.063 | [8] 0.015 | entospletinib -0.114

EIF3J isoform 2 (UniProt O75822)
inactive: [5] -0.034 | [7] 0.051 | entospletinib 0.017

EIF2B5, A0A3B3ITK8
inactive: nilotinib -0.455 | [1] 0.16 | [2] -0.134 | tipifarnib 0.313 | [5] -0.054

EME1 isoform 2 (UniProt Q96AY2)
inactive: quisinostat -0.235 | [4] 0.067 | [7] 0.133 | [8] -0.021 | entospletinib 0

EPB41L2 isoform 4 (UniProt O43491)
inactive: nilotinib -0.016 | [1] -0.052 | [2] 0.049 | tipifarnib 0.083 | [5] 0.027

EIF4E3 (UniProt Q8N5X7)
inactive: nilotinib 0 | [1] -0.052 | [2] -0.098 | quisinostat 0.11 | tipifarnib -0.246 | [4] 0.037 | [6] -0.051 | [7] -0.067 | vorinostat 0.04 | silmitasertib 0.377 | [8] -0.005 | entospletinib 0.044

EPS15L1 (UniProt M0QY01)
inactive: dasatinib -0.067 | [3] -0.003 | [5] -0.026 | [6] -0.026 | [7] 0.031 | vorinostat 0.059 | silmitasertib -0.028 | entospletinib 0

ELOF1 (UniProt P60002)
inactive: dasatinib -0.224 | [3] -0.02 | quisinostat 0.33 | [4] -0.18 | [5] -0.024 | [6] -0.055 | vorinostat 0.497 | silmitasertib 0.07 | [8] 0.157

EIF4A1 (UniProt J3KS25)
inactive: [7] -0.055 | entospletinib -0.063

EIF3I (UniProt Q5TFK1)
inactive: nilotinib 0.108 | [1] -0.239 | [2] -0.035 | tipifarnib -0.511 | [5] 0.387

ELK1 (UniProt P19419)
inactive: dasatinib -0.317 | [3] -0.027 | [7] 0 | entospletinib -0.092

EIF4H isoform 2 (UniProt Q15056)
inactive: dasatinib 0.089 | [3] -0.01 | quisinostat 0.232 | [4] 0.018 | [5] -0.064 | [6] 0 | [7] -0.227 | vorinostat 0.177 | silmitasertib -0.01 | [8] 0.082 | entospletinib -0.154

EMC1 (UniProt H7C5A2)
inactive: dasatinib -0.08 | [3] -0.004 | quisinostat 0.075 | [4] 0.195 | [5] 0.349 | [6] -0.273 | vorinostat 0.241 | silmitasertib 0.059 | [8] 0.145

ERAP2 (UniProt Q6P179)
inactive: quisinostat -0.244 | [4] -0.004 | [5] 0.051 | [6] -0.116 | vorinostat 0.163 | silmitasertib -0.007 | [8] 0.1 | entospletinib 0.002

EPHB6 (UniProt O15197)
inactive: nilotinib 0.058 | [1] -0.028 | [2] -0.037 | tipifarnib 0.016 | [7] -0.271 | entospletinib -0.022

EIF4EBP3 (UniProt O60516)
inactive: [6] 0.047 | vorinostat -0.024 | silmitasertib 0.064

EPB41, A0A2R8Y783
inactive: dasatinib 0.028 | [3] -0.11 | [5] -0.108 | [7] -0.071 | entospletinib 0.393

EPB41L5 (UniProt Q9HCM4)
inactive: quisinostat -0.062 | [4] 0.012 | [5] -0.126 | [6] 0.035 | vorinostat -0.465 | silmitasertib 0.237 | [8] 0.013 | entospletinib 0.144

ENTR1 (UniProt Q96C92)
inactive: nilotinib 0.005 | [1] 0.004 | [2] -0.088 | quisinostat -0.112 | tipifarnib -0.051 | [4] -0.006 | [7] -0.156 | [8] 0.036 | entospletinib 0.188

ENTPD7 (UniProt Q9NQZ7)
inactive: nilotinib -0.094 | [1] -0.27 | [2] -0.044 | tipifarnib -0.094 | [5] 0.069 | [7] 0.015 | entospletinib -0.074
